No constants are given. Whether binding was seen depends on the method and setting. Binding seen in cells or lysates may run through a third protein. Some entries that bind do so weakly or less than the wild type. Tags and fused reporters may be left off the sequences shown.

Assay [1] has as its target T1, Whi5^13MYC (S. cerevisiae) (UniProt Q12416).
T1 sequence: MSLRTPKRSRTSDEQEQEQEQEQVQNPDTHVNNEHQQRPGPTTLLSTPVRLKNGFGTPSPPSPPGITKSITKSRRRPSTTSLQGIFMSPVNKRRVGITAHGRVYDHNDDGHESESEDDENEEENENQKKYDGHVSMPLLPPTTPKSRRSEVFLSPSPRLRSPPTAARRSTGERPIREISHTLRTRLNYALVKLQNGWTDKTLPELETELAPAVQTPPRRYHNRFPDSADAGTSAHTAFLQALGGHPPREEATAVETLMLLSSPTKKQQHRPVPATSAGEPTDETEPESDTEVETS
The experiment in a line: co-IP; Nrs1^13MYC or Whi5^13MYC captured on anti-MYC resin from cultures untreated or treated with 200 nM rapamycin for 3 h; blots with polyclonal anti-Swi4 and anti-Swi6.

In assay [2] the target is T2, Whi5^HA (S. cerevisiae) (UniProt Q12416).
T2 sequence: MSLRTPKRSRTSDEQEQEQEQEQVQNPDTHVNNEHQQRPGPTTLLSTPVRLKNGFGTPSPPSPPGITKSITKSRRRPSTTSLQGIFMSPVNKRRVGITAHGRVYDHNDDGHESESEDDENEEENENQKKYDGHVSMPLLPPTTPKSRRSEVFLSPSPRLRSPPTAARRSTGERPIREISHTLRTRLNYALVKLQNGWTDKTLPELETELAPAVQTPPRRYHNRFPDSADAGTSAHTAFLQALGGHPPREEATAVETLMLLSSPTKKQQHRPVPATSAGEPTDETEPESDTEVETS
The assay is described as follows: co-IP; Whi5^HA immunoprecipitates from strains with empty vector or GAL1-NRS1, induced with galactose for 6 hours; blots for Whi5^HA, Swi4 and Swi6.

B1: Swi4 (protein, UniProt P25302 1-1093)
chain: MPFDVLISNQKDNTNHQNITPISKSVLLAPHSNHPVIEIATYSETDVYECYIRGFETKIVMRRTKDDWINITQVFKIAQFSKTKRTKILEKESNDMQHEKVQGGYGRFQGTWIPLDSAKFLVNKYEIIDPVVNSILTFQFDPNNPPPKRSKNSILRKTSPGTKITSPSSYNKTPRKKNSSSSTSATTTAANKKGKKNASINQPNPSPLQNLVFQTPQQFQVNSSMNIMNNNDNHTTMNFNNDTRHNLINNISNNSNQSTIIQQQKSIHENSFNNNYSATQKPLQFFPIPTNLQNKNVALNNPNNNDSNSYSHNIDNVINSSNNNNNGNNNNLIIVPDGPMQSQQQQQHHHEYLTNNFNHSMMDSITNGNSKKRRKKLNQSNEQQFYNQQEKIQRHFKLMKQPLLWQSFQNPNDHHNEYCDSNGSNNNNNTVASNGSSIEVFSSNENDNSMNMSSRSMTPFSAGNTSSQNKLENKMTDQEYKQTILTILSSERSSDVDQALLATLYPAPKNFNINFEIDDQGHTPLHWATAMANIPLIKMLITLNANALQCNKLGFNCITKSIFYNNCYKENAFDEIISILKICLITPDVNGRLPFHYLIELSVNKSKNPMIIKSYMDSIILSLGQQDYNLLKICLNYQDNIGNTPLHLSALNLNFEVYNRLVYLGASTDILNLDNESPASIMNKFNTPAGGSNSRNNNTKADRKLARNLPQKNYYQQQQQQQQPQNNVKIPKIIKTQHPDKEDSTADVNIAKTDSEVNESQYLHSNQPNSTNMNTIMEDLSNINSFVTSSVIKDIKSTPSKILENSPILYRRRSQSISDEKEKAKDNENQVEKKKDPLNSVKTAMPSLESPSSLLPIQMSPLGKYSKPLSQQINKLNTKVSSLQRIMGEEIKNLDNEVVETESSISNNKKRLITIAHQIEDAFDSVSNKTPINSISDLQSRIKETSSKLNSEKQNFIQSLEKSQALKLATIVQDEESKVDMNTNSSSHPEKQEDEEPIPKSTSETSSPKNTKADAKFSNTVQESYDVNETLRLATELTILQFKRRMTTLKISEAKSKINSSVKLDKYRNLIGITIENIDSKLDDIEKDLRANA
B1: the binding result in assay [1] and in assay [2] was “binds” in each case.

B2: Swi6 (protein, UniProt P09959 1-803)
chain: MALEEVVRYLGPHNEIPLTLTRDSETGHFLLKHFLPILQQYHDTGNINETNPDSFPTDEERNKLLAHYGIAVNTDDRGELWIELEKCLQLLNMLNLFGLFQDAFEFEEPETDQDEEDPSHSKLPENKTKSENSKDNISSKRINNLQDMSLDSDAHRELGSPLKKLKIDTSVIDAESDSTPNTARGKPNDDINKGPSGDNENNGTDDNDRTAGPIITFTHDLTSDFLSSPLKIMKALPSPVVNDNEQKMKLEAFLQRLLFPEIQEMPTSLNNDSSNRNSEGGSSNQQQQHVSFDSLLQEVNDAFPNTQLNLNIPVDEHGNTPLHWLTSIANLELVKHLVKHGSNRLYGDNMGESCLVKAVKSVNNYDSGTFEALLDYLYPCLILEDSMNRTILHHIIITSGMTGCSAAAKYYLDILMGWIVKKQNRPIQSGTNEKESKPNDKNGERKDSILENLDLKWIIANMLNAQDSNGDTCLNIAARLGNISIVDALLDYGADPFIANKSGLRPVDFGAGTSKLQNTNGGDENSKMVSKGDYDGQKNGKAKKIRSQLLKNPPETTSLINDVQNLLNSISKDYENETVQYNEKLEKLHKELNEQREELANSREQLANVKQLKDEYSLMQEQLTNLKAGIEEEEESFREESKKLGIIADESSGIDWDSSEYDADEPFKVEFLSDFLEDKLQKNYEGDISKLLEAESKEQIMEQIRNQLPAEKIQSMLPPTVLLKARINAYKRNDKHLTNVLDTISTKQSELENKFRRVLSLCLKIDENKVDNMLDGLLQAISSEDPQDIDTDEMQDFLKKHAS
For B2, the binding result in assay [1] and in assay [2] was “binds” throughout.

For the origin of these results see article PMC8893695, “The microprotein Nrs1 rewires the G1/S transcriptional machinery during nitrogen limitation in budding yeast” (PLoS Biology, 2022).
